Test results: patent US20050214207A1 (published 2005)
These are yes or no findings as the source states them, for the method shown. Binding calls can cover weak binding; strength is not graded here.

Molecular target: TR7 polypeptide (form used for the phage display selection not stated) (human)
Experiment: phage display selection of scFvs (no details given)

B1: CM005A08 scFv (scFv)
scFv: EVQLVETGGGLVQPGGSLRLSCAASGFTFSSYAMSWVRQAPGKGLEWVSAISGSGGSTYYADSVKGRFTISRDNSKNTLYLQMNSLRAEDTAVYHCARGGYSSSRSAAYDIWGQGTLVTVSSGGGGSGGGGSGGGGSSELTQDPAVSVALGQTVRITCQGDSLRSYYASWYQQKPGQAPVLVIYGKNNRPSGIPDRFSGSSSGNTASLTITGAQAEDEADYYCNSRDSSGNHVVFGGGTKLTVLG
  binding: binds

B2: CM014C10 scFv (scFv)
scFv: QVQLVQSGAEVKKPGASVKISCEGSGYTFNSYTLHWLRQAPGQRLEWMGRINAGNGNTKYSQNFQGRLSITRDTSATTAYMELSSLRSEDTGVYYCARVFTYSFGMDVWGRGTLVTVSSGGGGSGGGGSGGGGSAQSVLTQPPSASGTPGQRVTISCSGGGSNIGRNSVSWYQQLPGTAPKLILYSNNQRPSGVPDRFSGSKSGTSASLAISGLRSEDEALYYCAAWDDSLSGGVFGGGTKLTVLG
  binding: binds

B3: CM033D06 scFv (scFv)
scFv: QVQLQQSGAEVKKPGASVRVSCQASGYSLSEYYIHWVRQAPGQGLEWMGWLNPNSGVTDYAQKFQGRVSMTRDTSISTAYMELSSLTFNDTAVYFCARGNGDYWGKGTLVTVSPGGGGSGGGGSGGGGSSELTQDPAVSVALGQTVRITCQGDSLRSYYTNWFQQKPGQAPLLVVYAKNKRPSGIPDRFSGSSSGNTASLTITGAQAEDEADYYCHSRDSSGWVFGGGTKLTVLG
  binding: binds

B4: CM013A11 scFv (scFv)
scFv: QVQLVQSGGGVVQPGRSLRLSCAASGFTFSPDAMHWVRQAPGKGLEWMGVISFDGSQTFYADSVKGRFTISRDNSQNTLYLQMNSLRSDDTAVYYCARAPARFFPLHFDIWGRGTMVTVSSGGGGSGGGGSGGGGSALSSELTQDPAVSVALGQTVRITCQGDSLRTHYASWYHQRPGRAPVLVNYPKDSRPSGIPDRFSGSSSGNTASLTIIGAQAADEGDYYCQSRDSSGVLFGGGTKVTVLG
  binding: binds

B5: CM013F04 scFv (scFv)
scFv: EVQLVESGGGLVQPGGSLRLSCAASGFTFSSYWMSWVRQAPGKGLEWVANIKQDGSEKYYVDSVKGRFTISRDNAKNSLYLQMNSLRAEDTAVYYCARDFSGYGDYLDYWGKGTLVTVSSGGGGSGGGGSGGGGSAQSALTQPPSASGSPGQSVTISCTGTSSDIGNYNYVSWYQQHPGKAPKLMIYEVNERPSGVPDRFSGSKSGNTASLTVSGLRPEDEADYYCSSYAGNNAVIFGGGTQLTVLG
  binding: binds

B6: CM088F10 scFv (scFv)
scFv: QVQLVQSGAEVKKPGASVKVSCKASGYTFTTHAMHWVRQAPGQSLEWMGWINTGNGNTKYSQSFQGRVSITRDTSANTAYMELSSLKSEDTAMYYCARASRDSSGYYYVPPGDFFDIWGQGTLVTVSSGGGGSGGGGSGGGGSAQSALTQPASVSGSPGQSITISCTGSRSDIGGYNFVSWYQQHPGKAPKLLIYDVYNRPSGISDHFSGSKSDNTASLTISGLQSEDDADYYCSSYAGYHTWIFGGGTKVTVLG
  binding: binds

B7: CM084A02 scFv (scFv)
scFv: EVQLVQSGAEVKKPGASVKLSCKASGYTLVNYFMHWVRQAPGQGPEWMGMINPSGGTTKNRQKFQDRVTMTRDTSTRTVYMELSGLTSEDTAVYYCATDFKGTDILFRDWGRGTLVTVSSGGGGSGGGGSGGGGSAQSVLTQPPSASGTPGQRVSISCSGSSSNIGSNTVIWYQQLPGTAPKLLMYSNDRRPSGVPDRFSGSKSGTSASLAISGLQSEDEADYYCATWDDSLNGHYVFGTGTKLTVLG
  binding: binds

B8: CM087C06 scFv (scFv)
scFv: QMQLVQSGGGLVKPGGSLRLSCAASGFTFSDYYMSWIRQAPGKGLEWVSAISGSGGSTYYADSVKGRFTISRDNSKNTLYLQMNSLRAEDTAVYYCARGGSTFDIWGRGTMVTVSSGGGGSGGGGSGGGGSAQPVLTQPPSASGTPGQRVTISCSGSNSNIGSRPVNWYQQLPGTAPKLLIQGNNQRPSGVPDRFSGSKSGTSASLAISGLQSEDEADYYCAAWDDSLTGYVFGPGTKLTVLG
  binding: binds

B9: CM055A01 scFv (scFv)
scFv: QMQLVQSGGAVVQPGRSLRLSCAASGFTFSSYGMHWVRQAPGKGLEWVAVISYDGSIKYYADSVKGRFTISRDNSKNTLYLQMNSLRAEDTAVYYCARERLRGLDPWGQGTMVTVSSGGGGSGGGGSGGGGSSELTQDPAVSVALGQTVRITCQGDSLRSYYASWYQQKPGQAPVLVIYGKNNRPSGIPDRFSGSSSGNTASLTITGAQAEDEADYYCNSRDSSGNHVVFGGGTKLTVLG
  binding: binds

B10: CM085C11 scFv (scFv)
scFv: EVQLVETGGGLVQPGGSLRLSCAASGFTFSPYYMSWVRQAPGKGLEWVSAISGSGGSIYYADSVKGRFTISRDNSKNTLYLQMNSLRAEDTALYYCARGASGPDYWGRGTMVTVSSGGGGSGGGGSGGGGSAQSVLTQPPSVSAAPGQKVTISCSGSTSNIGNNYVSWYQQVPGTAPKLLIYDNNKRPSGIPDRFSGSKSGTSATLGITGLQTGDEADYYCGTWDSSLSALVFGGGTKVTVLG
  binding: binds

B11: CM089A03 scFv (scFv)
scFv: QVQLQQSGAEVKTPGSSVKVSCKASGGTFRNNAISWVRQAPGQGLEWMGGFIPKFGTTNHAQKFQGRVTMTADDSTNTVYMELSSLRSEDTAVYYCARGGAYCGGGRCYLYGMDVWGQGTLVTVSSGGGGSGGGGSGGGGSAQAVVIQEPSLTVSPGGTVTLTCGSSTGAVTSGHYPYWFQQKPGQAPRTLIYDTSNKRSWTPARFSGSLLGGKAALTLSGAQPEDEAEYYCLVSYSGSLVVFGGGTKLTVLG
  binding: binds

B12: CM059H03 scFv (scFv)
scFv: EVQLVQSGAEVKKPGASVKVSCRASGYTFTSYGITWVRQAPGQGLEWMGWISAYNGKTNYVQELQGRVTMTTDTSTSTVYMELTSLRSDDTAVYYCARRGNNYRFGYFDFWGQGTLVTVSSGGGGSGGGGSGGGGSALETTLTQSPGTLSLSPGERATLSCRASQSISSSNLAWYQQKPGRAPRLLIYGASSRAIGIPDRFSGSGSGTDFTLTISRLEAEDFAVYYCQQYGSSPITFGQGTRLEIKR
  binding: binds
